This note sets out measurements from US8476408B2, “Unacylated ghrelin and analogs as therapeutic agents for vascular remodeling in diabetic patients and treatment of cardiovascular disease” (Alize Pharma SAS, priority 2008, dated 2013).

This series relates to CAC membranes. Kind of series: Saturation binding experiment on CAC membranes (Scatchard analysis). On the set-up: species or system human.

What is called Hill coefficient is the slope factor of the fitted curve. In turn, “1-NH2Gly-Ser-Ser-Phe-Leu-Ser-Pro-Glu-His-Gln-Arg-Val-Gln-Gln-Arg-Lys-Glu-Ser-Lys-Lys-Pro-Pro-Ala-Lys-Leu-Gln-Pro-Arg-28 (GSSFLSPEHQRVQQRKESKKPPAKLQPR; listed as Homo sapiens) [UAG]” showed a Hill coefficient (Scatchard analysis) of about 1. In addition, the “concentration at which specific binding reaches a maximum” value (saturable binding, FIG. 5B) amounted to 2 nM.
